These are yes or no findings as the source states them, for the method shown. Binding seen in cells or lysates may run through a third protein. Some binding calls cover weakened binding; strength is not graded here. For part of these data: Tags and fused reporters may be left off the sequences shown.
The substances below were run against T1, HSP20, wild type, transfected into HEKB2 / HEK293 cells (human) (UniProt O14558) (assay: co-immunopurification with HSP20 from co-transfected HEKB2 cells, Western blot).
T1 sequence: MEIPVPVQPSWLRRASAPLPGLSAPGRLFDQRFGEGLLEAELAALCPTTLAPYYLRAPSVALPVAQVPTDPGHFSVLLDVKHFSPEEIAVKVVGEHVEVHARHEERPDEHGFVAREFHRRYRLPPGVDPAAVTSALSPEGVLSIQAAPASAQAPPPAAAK

Protein sequences, listed by entry. Tags and fused reporters are not part of them. Lines headed by an entry give the natural chain unless they say otherwise; changes in a name come on top. Chains listed by the source or under a name are the forms on record and can include a tag or linker.
PDE4D1 (transfected into HEKB2 cells) (Q08499, form named): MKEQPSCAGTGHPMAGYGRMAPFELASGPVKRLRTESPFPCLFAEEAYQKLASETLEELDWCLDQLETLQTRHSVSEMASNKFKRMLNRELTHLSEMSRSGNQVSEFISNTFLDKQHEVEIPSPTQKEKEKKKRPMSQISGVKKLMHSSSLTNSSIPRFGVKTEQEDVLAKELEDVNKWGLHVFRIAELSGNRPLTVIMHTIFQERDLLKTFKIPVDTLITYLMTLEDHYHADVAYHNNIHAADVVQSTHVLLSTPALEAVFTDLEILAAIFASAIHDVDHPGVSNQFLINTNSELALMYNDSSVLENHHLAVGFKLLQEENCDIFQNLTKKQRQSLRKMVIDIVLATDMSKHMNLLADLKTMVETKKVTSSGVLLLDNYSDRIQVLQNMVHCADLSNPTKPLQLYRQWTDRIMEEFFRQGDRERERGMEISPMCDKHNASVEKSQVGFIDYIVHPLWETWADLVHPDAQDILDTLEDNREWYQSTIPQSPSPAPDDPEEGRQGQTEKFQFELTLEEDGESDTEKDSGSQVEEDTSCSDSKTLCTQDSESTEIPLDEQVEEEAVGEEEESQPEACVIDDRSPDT
MBP-PDE4D3 (Q08499, form named): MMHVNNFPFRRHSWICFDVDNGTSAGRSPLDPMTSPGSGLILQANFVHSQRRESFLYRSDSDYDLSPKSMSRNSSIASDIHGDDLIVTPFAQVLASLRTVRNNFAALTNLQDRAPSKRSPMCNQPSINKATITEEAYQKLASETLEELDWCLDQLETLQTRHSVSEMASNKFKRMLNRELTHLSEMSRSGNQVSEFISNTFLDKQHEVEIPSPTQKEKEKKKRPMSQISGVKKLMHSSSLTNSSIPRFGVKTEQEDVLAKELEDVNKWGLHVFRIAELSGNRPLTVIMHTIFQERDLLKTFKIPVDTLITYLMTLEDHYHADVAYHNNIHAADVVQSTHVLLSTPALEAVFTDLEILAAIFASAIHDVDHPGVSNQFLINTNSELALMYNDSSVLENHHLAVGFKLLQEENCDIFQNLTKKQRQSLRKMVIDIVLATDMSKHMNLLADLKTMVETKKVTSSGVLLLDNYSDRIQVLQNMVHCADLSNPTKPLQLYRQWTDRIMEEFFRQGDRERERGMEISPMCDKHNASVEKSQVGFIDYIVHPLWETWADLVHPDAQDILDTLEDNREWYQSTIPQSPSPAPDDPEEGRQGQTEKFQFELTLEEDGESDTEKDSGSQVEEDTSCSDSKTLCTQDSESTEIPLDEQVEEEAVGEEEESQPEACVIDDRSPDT
PDE4D7 (transfected into HEKB2 cells) (Q08499, form named): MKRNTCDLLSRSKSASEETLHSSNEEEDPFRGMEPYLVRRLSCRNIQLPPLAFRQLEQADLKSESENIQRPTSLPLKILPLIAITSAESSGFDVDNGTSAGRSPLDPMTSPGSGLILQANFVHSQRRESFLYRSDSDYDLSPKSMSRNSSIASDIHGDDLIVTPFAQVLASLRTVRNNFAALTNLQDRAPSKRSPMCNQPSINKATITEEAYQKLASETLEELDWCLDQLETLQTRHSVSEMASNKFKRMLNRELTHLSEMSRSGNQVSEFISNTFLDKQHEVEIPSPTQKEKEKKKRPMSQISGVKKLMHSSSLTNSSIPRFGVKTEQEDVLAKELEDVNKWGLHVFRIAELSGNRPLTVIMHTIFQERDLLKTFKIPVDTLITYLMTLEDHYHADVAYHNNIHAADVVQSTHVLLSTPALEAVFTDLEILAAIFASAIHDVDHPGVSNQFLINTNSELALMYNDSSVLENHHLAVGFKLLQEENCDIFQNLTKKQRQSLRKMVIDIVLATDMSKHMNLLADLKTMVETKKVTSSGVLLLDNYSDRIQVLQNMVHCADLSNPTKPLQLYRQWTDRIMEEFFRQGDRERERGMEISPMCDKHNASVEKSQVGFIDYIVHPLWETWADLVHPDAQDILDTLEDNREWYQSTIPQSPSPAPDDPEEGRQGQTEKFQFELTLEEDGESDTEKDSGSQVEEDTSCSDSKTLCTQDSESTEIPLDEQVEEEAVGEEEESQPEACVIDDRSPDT
PDE4D8 (transfected into HEKB2 cells) (Q08499, form named): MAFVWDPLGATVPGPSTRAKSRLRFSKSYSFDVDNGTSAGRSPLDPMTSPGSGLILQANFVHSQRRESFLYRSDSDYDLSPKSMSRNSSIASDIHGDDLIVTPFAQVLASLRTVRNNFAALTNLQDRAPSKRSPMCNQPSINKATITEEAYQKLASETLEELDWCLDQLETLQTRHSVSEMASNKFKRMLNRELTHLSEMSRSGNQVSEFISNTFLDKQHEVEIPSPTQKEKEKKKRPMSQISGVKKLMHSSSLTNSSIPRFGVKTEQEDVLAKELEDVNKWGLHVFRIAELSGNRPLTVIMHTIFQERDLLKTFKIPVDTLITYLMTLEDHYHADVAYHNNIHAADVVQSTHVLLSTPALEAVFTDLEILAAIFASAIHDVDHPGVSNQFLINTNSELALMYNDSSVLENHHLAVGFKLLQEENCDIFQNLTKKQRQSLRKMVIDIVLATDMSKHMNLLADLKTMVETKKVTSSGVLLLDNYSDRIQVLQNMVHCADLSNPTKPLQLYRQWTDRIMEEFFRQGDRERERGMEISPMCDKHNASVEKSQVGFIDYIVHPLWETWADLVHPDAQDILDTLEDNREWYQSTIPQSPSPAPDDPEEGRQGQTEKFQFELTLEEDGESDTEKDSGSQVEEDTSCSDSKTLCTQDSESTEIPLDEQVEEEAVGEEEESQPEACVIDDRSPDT
PDE4D9 (transfected into HEKB2 cells) (Q08499, form named): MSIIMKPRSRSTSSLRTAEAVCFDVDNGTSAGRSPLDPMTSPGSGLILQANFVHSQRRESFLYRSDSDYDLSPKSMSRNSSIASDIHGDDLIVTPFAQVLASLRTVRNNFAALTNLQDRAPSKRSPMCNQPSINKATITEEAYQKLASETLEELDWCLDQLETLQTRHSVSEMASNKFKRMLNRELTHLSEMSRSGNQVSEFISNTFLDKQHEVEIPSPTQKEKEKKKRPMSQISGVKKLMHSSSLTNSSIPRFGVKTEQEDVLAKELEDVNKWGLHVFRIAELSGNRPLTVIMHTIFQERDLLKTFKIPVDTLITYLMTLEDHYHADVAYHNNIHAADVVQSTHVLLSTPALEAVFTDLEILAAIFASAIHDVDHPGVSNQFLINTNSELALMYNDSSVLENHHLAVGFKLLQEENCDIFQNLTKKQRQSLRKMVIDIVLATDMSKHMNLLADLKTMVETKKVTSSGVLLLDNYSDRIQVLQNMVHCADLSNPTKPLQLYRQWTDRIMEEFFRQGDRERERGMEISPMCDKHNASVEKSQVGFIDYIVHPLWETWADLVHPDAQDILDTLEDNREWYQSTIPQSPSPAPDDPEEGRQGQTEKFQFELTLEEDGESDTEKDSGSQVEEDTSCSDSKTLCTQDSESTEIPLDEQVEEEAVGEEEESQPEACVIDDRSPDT
GST-PDE4B3 (Q07343, form named): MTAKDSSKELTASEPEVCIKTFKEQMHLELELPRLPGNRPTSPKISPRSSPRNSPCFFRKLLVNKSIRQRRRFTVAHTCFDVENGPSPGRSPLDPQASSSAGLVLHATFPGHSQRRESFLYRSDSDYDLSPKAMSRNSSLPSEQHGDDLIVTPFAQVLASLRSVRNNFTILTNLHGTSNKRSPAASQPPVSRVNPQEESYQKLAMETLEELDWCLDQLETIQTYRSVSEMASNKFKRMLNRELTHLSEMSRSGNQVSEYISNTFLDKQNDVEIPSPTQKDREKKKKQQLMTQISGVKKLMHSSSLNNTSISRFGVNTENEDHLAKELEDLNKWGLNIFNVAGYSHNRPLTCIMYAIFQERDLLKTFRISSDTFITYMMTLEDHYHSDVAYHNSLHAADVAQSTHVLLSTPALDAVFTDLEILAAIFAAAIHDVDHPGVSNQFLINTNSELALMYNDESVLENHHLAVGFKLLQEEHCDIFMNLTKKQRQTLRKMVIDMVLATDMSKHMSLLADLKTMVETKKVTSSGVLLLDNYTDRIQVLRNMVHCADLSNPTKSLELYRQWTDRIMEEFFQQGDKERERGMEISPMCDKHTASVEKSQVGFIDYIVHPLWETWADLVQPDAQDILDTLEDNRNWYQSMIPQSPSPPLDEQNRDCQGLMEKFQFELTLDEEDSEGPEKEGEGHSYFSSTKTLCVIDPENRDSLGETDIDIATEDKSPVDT

Question: How did the binding turn out when “PDE4D1 (transfected into HEKB2 cells) (from UniProt Q08499 1-584) (enzyme)” was run?
Answer: Its binding is “binds”.

Question: Which binding does the source give for “PDE4D2 (transfected into HEKB2 cells) (from UniProt Q08499 1-507) (enzyme)” here?
Answer: The binding was “binds”.

Question: “PDE4D3 (transfected into HEKB2 cells) (from UniProt Q08499 1-673) (enzyme)” was tested. Which binding did it give?
Answer: The binding was “binds”.

Question: “PDE4D7 (transfected into HEKB2 cells) (from UniProt Q08499 1-748) (enzyme)” was tested. Which binding did it give?
Answer: Its binding is “binds”.

Question: “PDE4D8 (transfected into HEKB2 cells) (from UniProt Q08499 1-687) (enzyme)” was tested. Which binding did it give?
Answer: The binding was “binds”.

Question: Which binding does the source give for “PDE4D9 (transfected into HEKB2 cells) (from UniProt Q08499 1-679) (enzyme)” here?
Answer: The binding was “binds”.

These substances were tested against T2, His-HSP20 (purified recombinant His-tagged HSP20) (human) (UniProt O14558) (assay: GST pull-down with purified recombinant proteins, immunoblot (data not shown)).
T2 sequence: T1 sequence

Question: Which binding does the source give for “GST-PDE4B3 (from UniProt Q07343 1-721) (enzyme)” here?
Answer: The binding was “binds”.

Question: How did the binding turn out when “GST-PDE4D3 (from UniProt Q08499 1-673) (enzyme)” was run?
Answer: Its binding is “binds”.

Each substance was assayed against T2, His-HSP20 (purified recombinant His-tagged HSP20) (human) (assay: pull-down of HSP20 by its His tag, test for co-purification of PDE4).

Question: “MBP-PDE4D3 (from UniProt Q08499 1-673) (enzyme)” was tested. Which binding did it give?
Answer: Its binding is “binds”.

Source: patent publication US20130209439A1, “INHIBITORS OF PDE4 BINDING TO HSP20” (THE UNIVERSITY COURT OF THE UNIVERSITY OF GLASGOW, priority 2010, published 2013)
